## Library screen at single concentrations

By UniProt entry, the sequences of proteins in these tests, tags left out.
UniProt P9WPC5, whole entry: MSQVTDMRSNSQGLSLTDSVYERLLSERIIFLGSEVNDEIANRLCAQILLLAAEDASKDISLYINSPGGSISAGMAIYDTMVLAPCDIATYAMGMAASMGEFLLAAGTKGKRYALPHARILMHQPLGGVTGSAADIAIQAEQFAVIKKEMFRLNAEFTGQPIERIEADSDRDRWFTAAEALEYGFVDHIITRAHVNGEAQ
UniProt P9WPC3, whole entry partner: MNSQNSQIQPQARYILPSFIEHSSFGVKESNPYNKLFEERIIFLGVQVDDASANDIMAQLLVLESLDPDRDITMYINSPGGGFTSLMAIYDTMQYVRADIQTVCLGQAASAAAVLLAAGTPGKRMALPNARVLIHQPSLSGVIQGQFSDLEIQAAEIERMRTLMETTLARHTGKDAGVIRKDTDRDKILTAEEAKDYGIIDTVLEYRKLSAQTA
UniProt I6X8D2, whole entry: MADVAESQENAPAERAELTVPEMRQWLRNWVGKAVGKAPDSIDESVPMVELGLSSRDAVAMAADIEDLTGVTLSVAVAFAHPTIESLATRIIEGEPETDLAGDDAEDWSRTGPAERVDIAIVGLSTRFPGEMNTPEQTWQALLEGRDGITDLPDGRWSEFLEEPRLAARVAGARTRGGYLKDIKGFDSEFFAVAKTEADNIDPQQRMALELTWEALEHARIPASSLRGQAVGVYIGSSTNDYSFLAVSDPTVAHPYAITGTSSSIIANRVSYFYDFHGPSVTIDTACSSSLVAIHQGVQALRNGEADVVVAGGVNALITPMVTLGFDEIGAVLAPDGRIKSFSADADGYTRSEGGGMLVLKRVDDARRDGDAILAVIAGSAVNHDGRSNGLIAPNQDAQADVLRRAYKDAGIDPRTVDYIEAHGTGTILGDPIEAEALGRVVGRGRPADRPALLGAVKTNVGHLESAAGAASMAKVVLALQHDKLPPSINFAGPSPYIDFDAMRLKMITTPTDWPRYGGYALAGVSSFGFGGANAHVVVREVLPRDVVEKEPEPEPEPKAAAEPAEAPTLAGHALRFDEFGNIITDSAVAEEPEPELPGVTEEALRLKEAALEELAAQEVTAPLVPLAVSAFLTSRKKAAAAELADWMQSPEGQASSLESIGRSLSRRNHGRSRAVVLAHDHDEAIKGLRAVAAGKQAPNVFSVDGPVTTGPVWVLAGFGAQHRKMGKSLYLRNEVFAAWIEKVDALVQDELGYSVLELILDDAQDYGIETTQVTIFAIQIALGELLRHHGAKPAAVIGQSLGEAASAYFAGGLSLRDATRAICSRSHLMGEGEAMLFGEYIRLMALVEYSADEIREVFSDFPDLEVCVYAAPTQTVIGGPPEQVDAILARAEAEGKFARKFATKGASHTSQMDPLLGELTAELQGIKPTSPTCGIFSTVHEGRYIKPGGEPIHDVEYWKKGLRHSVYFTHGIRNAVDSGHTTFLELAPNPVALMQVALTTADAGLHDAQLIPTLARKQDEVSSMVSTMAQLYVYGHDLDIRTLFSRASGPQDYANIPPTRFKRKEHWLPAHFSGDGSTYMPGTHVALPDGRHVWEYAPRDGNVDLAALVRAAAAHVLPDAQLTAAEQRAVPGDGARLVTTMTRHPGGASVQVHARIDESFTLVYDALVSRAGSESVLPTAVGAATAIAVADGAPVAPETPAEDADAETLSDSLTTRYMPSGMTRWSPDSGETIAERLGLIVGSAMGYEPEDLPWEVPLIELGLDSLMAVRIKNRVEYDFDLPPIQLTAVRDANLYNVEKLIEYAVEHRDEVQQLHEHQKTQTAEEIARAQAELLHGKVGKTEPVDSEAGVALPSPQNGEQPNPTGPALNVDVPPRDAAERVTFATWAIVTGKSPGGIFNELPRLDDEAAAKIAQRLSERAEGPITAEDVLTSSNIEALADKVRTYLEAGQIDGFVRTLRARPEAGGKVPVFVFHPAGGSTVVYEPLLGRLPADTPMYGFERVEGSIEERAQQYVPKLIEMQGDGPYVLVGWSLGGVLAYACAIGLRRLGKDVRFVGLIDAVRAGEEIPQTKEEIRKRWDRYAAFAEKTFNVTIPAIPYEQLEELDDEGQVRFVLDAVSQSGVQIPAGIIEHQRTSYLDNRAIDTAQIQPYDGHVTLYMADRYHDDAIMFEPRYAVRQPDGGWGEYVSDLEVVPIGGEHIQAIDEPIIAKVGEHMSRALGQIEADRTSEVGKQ

From ChEMBL document CHEMBL3988442, “University of Dundee, Small-Polar-MMV Screening Library” (2021).

Values are the deposited “Percent Effect”, in %. The record does not define 0% and 100%; most values in the screen are far below 50% and negative numbers occur (in some assays of this library far below -100). This is an unselected part of the compounds tested.

A: 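Protease assay of ClpP1P2, read by the AMC dye that it sets free. Target: ClpP1P2, Mycobacterium tuberculosis (UniProt P9WPC5 and UniProt P9WPC3). Tested at 50 µM. Direction is inferred from only a few compounds that gave an IC50; most scored high, so higher reads as stronger inhibition. Most other retested compounds had strongly negative values. Of about 69,000 compounds tested this way, about 10 (0.015%) reached 50% or more in at least one test.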
B: 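Enzyme assay of the thioesterase domain of polyketide synthase 13; the read-out is not stated. Target: Polyketide synthase Pks13, Mycobacterium tuberculosis (UniProt I6X8D2). Tested at 30 µM. Higher reads as stronger inhibition (inferred from which compounds were picked for retests). About 67,000 compounds were tested under these conditions; 0.46% (about 300) showed 50% or more at least once.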

O=c1cc(N2CCCC2)cnn1CC(F)F read A: -0.7477%; B: -2.25%.
CN1CCC2(CC1)Cc1ccccc1CN(C(=O)CN)C2 read A: -14.13%; B: -39.02%.
CC(C(=O)NCC1(c2c(F)cccc2F)CCCC1)S(C)(=O)=O (stereo unspecified) read A: 3.633%; B: -17.07%.
CNC(=O)[C@@H]1C[C@H]2CN(c3ncccn3)C[C@H]2N1C(C)C read A: 8.583%; B: -30.33%.
COCCN1CCCC(Cc2ccc(N3CCOCC3)nn2)C1 (stereo unspecified) read A: 6.265%; B: -1.778%.
Fc1ccc(F)c(CN2CCC(c3cnccn3)CC2)c1 read A: -8.51%; B: -17.67%.
Cc1nc(C)n(CC2CCCCN2c2ccnc(-c3ccccc3)n2)n1 (stereo unspecified) read A: 5.34%; B: 10.65%.
CC(C)c1cc(C(=O)N2C[C@H]3CC[C@@H]2CN(Cc2cscn2)C3)no1 read A: -2.528%; B: -9.778%.
CC(C(=O)Nc1cccc(C(F)(F)F)c1)N(C)CCN1CCOCC1 (stereo unspecified) read A: -8.32%; B: -9.579%.
COc1cc(CN2CCCCCC2c2cccs2)cc(OC)c1O (stereo unspecified) read A: 52.15%; B: -2.896%.
Cc1cccc(C)c1OCCNC(=O)CN1CCN(C)CC1C (stereo unspecified) read A: -14.17%; B: -1.131%.
CCc1nc(C)c(C2CC(=O)Nc3c2c(-c2cccnc2)nn3C)[nH]1 (stereo unspecified) read A: -10.88%; B: -34.32%.
O=C([C@@H]1CCCO1)N1CCN(Cc2ccncc2)c2ncccc2C1 read A: -9.649%; B: -12.57%.
CCN(CC)C(=O)CCc1c(C)nc2cc(O)nn2c1C read A: -5.801%; B: 1.997%.
O=C(CCCc1ccccn1)N1CCC(n2cccc2)CC1 read A: 14.2%; B: -2.086%.
CCCn1ccnc1CN1CC[C@@H](NC(=O)c2cccnc2)[C@H](O)C1 read A: -18.17%; B: -21.24%.
CN(c1ccccc1)c1ccc(CC2CCCN(CCO)C2)nn1 (stereo unspecified) read A: -5.215%; B: -5.369%.
Cc1nnc(CN(C)C2CCN(Cc3nnc(C4CCC4)o3)C2)n1C (stereo unspecified) read A: 11.51%; B: -11.02%.
CC(=O)Nc1ccc(CNC2COc3c2ccc(C)c3C)cc1 (stereo unspecified) read A: -5.283%; B: -13.62%.
Cc1nnc(C(C)N2CCCN(Cc3ccc(F)cc3)CC2)o1 (stereo unspecified) read A: -12.17%.
Cc1c(C(=O)NS(=O)(=O)c2ccc(F)cc2)cnn1CC(C)C read A: -19.37%; B: 4.639%.
COc1cccc(CC(C)NC(=O)NCc2ccn(C)c2)c1 (stereo unspecified) read A: -11.19%; B: -43.09%.
CC(C)NC(=O)C1(Cc2ccccc2-c2cncnc2)CCCNC1 (stereo unspecified) read A: -2.641%; B: -9.683%.
CN(Cc1ccco1)C(=O)CN1C(=O)c2ccccc2C1=O read A: 9.287%.
Cc1ccc(C)c(Oc2cc(-n3nc(C)c(C#N)c3N)nc(C)n2)c1 read A: 12.21%; B: -9.094%.
CCN(CCC(F)(F)F)S(=O)(=O)c1cccc(F)c1C#N read A: -4.225%; B: -0.4428%.
Cc1nc(C)c(CNCc2nnc3n2CCCC3C(F)(F)F)s1 (stereo unspecified) read A: 4.63%; B: -17.11%.
CCCc1n[nH]c(C2CN(C(=O)CCn3cc(C)cn3)CCO2)n1 (stereo unspecified) read A: 2.687%; B: -9.245%.
Cc1ccc(C(=O)N2CCC[C@@H]2Cn2nnc3c(O)nc(C)nc32)cc1 read A: -2.699%.
CC(=O)N1CCC(NC(C)c2cnn(-c3ccc(F)cc3F)c2C)CC1 (stereo unspecified) read A: -10.27%; B: -5.656%.
Cc1nn(C)cc1C(=O)NC(CC(C)C)C(=O)Nc1cc[nH]n1 (stereo unspecified) read A: -5.486%; B: -8.423%.
Cc1nc(C)c(C(=O)N2C[C@@H](C(=O)O)[C@H](C3CC3)C2)s1 read A: -12.1%; B: 2.945%.
COCCOCC(=O)N1C[C@@H]2CC[C@H](Oc3ccccc3Cl)[C@@H]2C1 read A: -5.585%; B: -1.657%.
Cc1ccc(CN2C[C@H](OCCN(C)C)[C@H]3OCCC[C@H]32)o1 read A: 9.831%; B: 11.78%.

The last 3 entries again:

| compound | A | B |
|---|---|---|
| `Cc1nc(C)c(C(=O)N2C[C@@H](C(=O)O)[C@H](C3CC3)C2)s1` | -12.1 | 2.945 |
| `COCCOCC(=O)N1C[C@@H]2CC[C@H](Oc3ccccc3Cl)[C@@H]2C1` | -5.585 | -1.657 |
| `Cc1ccc(CN2C[C@H](OCCN(C)C)[C@H]3OCCC[C@H]32)o1` | 9.831 | 11.78 |